Measurements taken from the supplement of paper PMC3334620.
Whole data set: some 33,000 sequences, median “E-score (-0.5 to 0.5)” near -0.016, cut for the highest 2% near 0.3. This is one part of the list.

The sequences below were run against T1, Yer184c (UniProt P39961) (assay: PBM E-score (8-mer binding enrichment) (E-score (-0.5 to 0.5)); higher = stronger / more preferred TF binding). Conditions: protein concentration: 100 nM; construct: GST-full length.
T1 sequence: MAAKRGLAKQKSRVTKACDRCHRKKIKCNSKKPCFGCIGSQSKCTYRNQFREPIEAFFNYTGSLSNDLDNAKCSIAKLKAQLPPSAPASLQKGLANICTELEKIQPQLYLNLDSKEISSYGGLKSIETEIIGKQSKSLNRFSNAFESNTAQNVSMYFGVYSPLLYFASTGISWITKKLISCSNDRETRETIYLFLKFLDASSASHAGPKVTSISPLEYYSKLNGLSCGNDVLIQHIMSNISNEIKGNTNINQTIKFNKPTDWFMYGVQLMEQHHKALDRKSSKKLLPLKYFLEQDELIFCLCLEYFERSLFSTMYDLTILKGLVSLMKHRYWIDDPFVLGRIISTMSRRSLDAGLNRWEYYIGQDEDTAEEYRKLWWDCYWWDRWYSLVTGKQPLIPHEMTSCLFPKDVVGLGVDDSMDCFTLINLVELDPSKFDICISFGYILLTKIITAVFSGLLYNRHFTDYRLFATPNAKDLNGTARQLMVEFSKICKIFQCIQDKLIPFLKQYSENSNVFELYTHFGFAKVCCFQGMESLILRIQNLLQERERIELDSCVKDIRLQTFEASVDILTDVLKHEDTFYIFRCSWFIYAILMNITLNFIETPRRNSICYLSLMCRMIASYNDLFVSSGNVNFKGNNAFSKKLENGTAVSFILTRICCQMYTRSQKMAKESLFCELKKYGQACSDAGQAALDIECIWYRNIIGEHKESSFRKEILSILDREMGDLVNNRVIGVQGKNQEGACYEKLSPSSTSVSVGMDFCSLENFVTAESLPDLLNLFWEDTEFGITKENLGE
Procedure, shortened: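 Masliner-normalised scans of fluorescent anti-GST signal were the basis for scoring. That signal came from GST-tagged yeast transcription factors applied at about 100-200 nM to double-stranded universal all-10-mer Agilent arrays on fresh or once-stripped slides. Each ungapped eight-base word, pooled with its reverse complement, received an E-score from the Universal PBM Analysis Suite.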

Sequence | PBM E-score
GCCTAGAC | -0.138
AAACAGTC | -0.192
CAGTATAA | 0.145
TCGTTTCA | 0.124
CGAGTCGA | 0.0363
CGGGAGAG | -0.0509
ACATTGCC | -0.0517
ACTGGATA | 0.0928
CTTGCTAC | -0.00558
ACACTTAA | 0.0551
AACCCCGT | -0.101
ATGTAGGG | -0.219
ATTAATCC | 0.212
CCCACGCA | -0.0326
TCTGCTAA | 0.0656
ACGTGGTC | -0.221
AGTTAATG | 0.0389
GCAATCAA | 0.0352
CCGCGACA | -0.00477
ATTACCCC | -0.102
TACAATGA | -0.00708
GGTGAGGA | -0.0261
CTAAATAA | 0.15
CGGTCATA | 0.0882
AAGCACGT | 0.00984

Sequence | PBM E-score
TAGCAAGA | 0.0272
ATTTGGAC | 0.0275
GCTACTAC | 0.11
AATCCAGA | 0.191
ATGCGGCG | 0.0251
GTCCTGAA | -0.0168
AAACTGTT | 0.173
AACTCGTG | -0.003
CTGGACAC | -0.296
AACATTCT | 0.0981
CAGAAGAA | -0.0789
ACTAAAAT | 0.169
TCGGACGA | 0.278
AGCAACTG | 0.00852
CTATTCCA | -0.0104
AATCGCCC | -0.0889
AGGATCAT | -0.0359
GCGGGGTA | -0.0321
AGCCCGGG | 0.268
AGAACTAC | 3e-05
CACCGCTG | -0.227
GAAGCCAA | -0.135
CGCAAAGA | 0.0479
ATTAATGC | -0.00255
GAATGCAC | 0.0993

An excerpt of these results, with each value named.
GCTACTAC
  PBM E-score: 0.11
GTCCTGAA
  PBM E-score: -0.0168
TCGGACGA
  PBM E-score: 0.278
AGCCCGGG
  PBM E-score: 0.268

Further entries follow.

Sequence | PBM E-score
ACCCGCTC | -0.343
GCTGCTCA | -0.169
ATGGATCG | 0.114
CACAAGAG | -0.0851
ATAGGGAA | -0.0565
GGCACTCA | -0.335
ATGGCTCG | -0.0279
CAGCATGC | -0.0481
CGACAAGA | 0.089
TGCGCGCA | -0.007
CTCACTCA | -0.0792
ATCCTTCC | -0.223
CATAGAGA | -0.12
CCGGACAG | 0.324
ACCACCGC | -0.285
CAATTACA | 0.11
AGACGCTA | -0.0684
AATGGCAA | 0.108
CCCGCCTC | -0.22
CCCGGAAG | 0.259
AGGTCACG | -0.176
GGTAGGAC | -0.0934
ATATTAGC | 0.159
ATAGCGGC | 0.0486
CCTAGCAC | -0.103

Sequence | PBM E-score
AATGACAC | -0.126
CTCGACGC | 0.134
TAAGATTA | 0.0934
CCAGATGG | -0.224
CCATCTAC | -0.15
ACGTTCAC | -0.064
CTGTACAC | -0.0897
ACTATAGC | -0.169
CGGAAATC | 0.315
CTGTGAAC | 0.00307
GGCCCCTA | -0.357
CTTTAGCC | 0.206
ATAGTGGA | -0.00347
CATCGTGA | -0.0261
CGTTCGTC | 0.0163
GACAACGA | 0.16
GAGATGCC | 0.0528
ATCAATAC | 0.0586
TAGGTCGA | 0.0761
CCCTTATC | -0.163
GTAGGCTA | -0.0673
ATACAACA | 0.0721
ACAAACGG | 0.206
AGAGCTCC | -0.193
ATCGGCAG | 0.247

Sequence | PBM E-score
ACTCACTA | 0.159
AAGCGCGT | -0.0847
AAGAGTAG | 0.013
ACATTCGC | -0.0692
ACCAACGT | -0.163
TGAGGAAA | 0.0193
CGTGAAGC | -0.118
AAGTGGGT | -0.0898
AAGGACGC | -0.0674
ATGAAAAA | 0.22
AGTTTCAG | -0.105
ACCGGTCT | -0.124
ACGGCTAC | 0.171
CCGGACCC | 0.235
CAGTTAAG | 0.0757
ACATGCGC | -0.0466
AAGGGGAC | -0.0399
TGCTATAA | -0.00769
AATAAATT | 0.294
GTAATCTA | 0.196
CACCATGG | -0.216
ACGCGCTC | 0.0382
ATCTACAA | 0.032
CCCTGTCG | -0.115
AGCCTAAA | 0.0463

Sequence | PBM E-score
ATCAGGTA | -0.00532
AAGTGGAC | -0.14
ATAGTGAG | -0.0847
CACATGCA | -0.138
ATACAGAC | 0.0388
ATAGAGAC | -0.116
GTAGATCA | 0.0991
GAGATAAC | -0.00305
GTAAGTAA | -0.112
CGAGTAGC | 0.13
AAAAGATC | -0.0129
TGAAGTAA | -0.0474
GAGCTCCC | -0.139
ACTTAACC | 0.103
AGCGCCAC | -0.234
ATCAGGAG | 0.128
AGCTTCAC | -0.106
CTTATTCC | 0.0275
CGGCGACC | 0.237
TACCTGGA | -0.0658
AAGGTGCG | -0.207
CCGGGACA | 0.287
GCTGTACC | -0.116
AGGATTAG | -0.0216
ATTTGTTC | 0.227

Sequence | PBM E-score
ACTCTCTG | -0.119
CGCACGCC | 0.0567
GGTCGTAA | 0.0853
GAGTGTCC | 0.119
AGGCATAC | -0.175
ACATTCAA | 0.0156
AATAACCT | -0.0516
GAGGTGAC | 0.0807
CCATCATA | -0.113
AGCTTACC | -0.0423
AATGGCCC | -0.247
CGGAATGC | 0.249
ACGTCACG | -0.168
AAAGCAGT | 0.039
GAGACAAC | 0.0432
AGGTTAAT | 0.102
ACTCAGAA | 0.134
AACGAGGG | -0.234
CTTATCTC | 0.053
CAGACCTG | -0.184
AATGCCAA | -0.029
ACCTGCCC | -0.125

A second format for part of the listing above:
Sequence	PBM E-score
AGCTTACC	-0.0423
AATGGCCC	-0.247
